In patent US20240279159A1, “HERBICIDAL ARYLCYCLOPENTENE CARBOXAMIDES” (BASF SE, priority 2021, published 2024):
Some results were stated once for a whole list of compounds, not compound by compound. Some ranges recur; such a range may be that of the whole group of compounds.

Experiments:
ECHCG [1] = assay: greenhouse herbicidal test, pre-emergence treatment; assay type: in vivo, Echinocloa crus-galli; settings: pre-emergence method, application rate 0.250 kg/ha; scale from 0 to 100
Source text: (§1) The culture containers used were plastic flowerpots containing loamy sand with approximately 3.0% of humus as the substrate. The seeds of the test plants were sown separately for each species.
(§2) For the pre-emergence treatment, the active ingredients, which had been suspended or emulsified in water, were applied directly after sowing by means of finely distributing nozzles. The containers were irrigated gently to promote germination and growth and subsequently covered with transparent plastic hoods until the test plants had rooted. This cover caused uniform germination of the test plants, unless this had been impaired by the active ingredients. For the post-emergence treatment, the test plants were first grown to a height of 3 to 15 cm, depending on the plant habit, and only then treated with the active ingredients which had been suspended or emulsified in water. For this purpose, the test plants were either sown directly and grown in the same containers, or they were first grown separately as seedlings and transplanted into the test containers a few days prior to treatment.
(§3) Depending on the species, the test plants were kept at 10-25° C. or 20-35° C., respectively. The test period extended over 2 to 4 weeks. During this time, the test plants were tended, and their response to the individual treatments was evaluated.
(§4) Evaluation was carried out using a scale from 0 to 100. 100 means no emergence of the test plants, or complete destruction of at least the aerial moieties, and 0 means no damage, or normal course of growth. A good herbicidal activity is given at values of 60 to 90 and a very good herbicidal activity is given at values of 90 to 100.
(§5) The test plants used in the greenhouse experiments were of the following species: […]

ECHCG [2] = assay: greenhouse herbicidal test, post-emergence treatment; assay type: in vivo, Echinocloa crus-galli; settings: post-emergence method, application rate 0.250 kg/ha; scale from 0 to 100
Source text: as §1, §2, §3, §4, §5

SETFA = assay: greenhouse herbicidal test, pre-emergence treatment; assay type: in vivo, Setaria faberi; settings: pre-emergence method, application rate 0.250 kg/ha; scale from 0 to 100
Source text: as §1, §2, §3, §4, §5

APESV = assay: as above; assay type: in vivo, Apera spica-venti; settings: pre-emergence method, application rate 0.250 kg/ha; scale from 0 to 100
ALOMY = assay: greenhouse herbicidal test, post-emergence treatment; assay type: in vivo, Alopercurus myosuroides; settings: post-emergence method, application rate 0.250 kg/ha; scale from 0 to 100
Source text: as §1, §2, §3
Evaluation was carried out using a scale from 0 to 100. […]

AVEFA = assay: as above; assay type: in vivo, Avena fatua; settings: post-emergence method, application rate 0.250 kg/ha; scale from 0 to 100

COC(=O)C[C@H](C)NC(=O)C1(C(F)(F)F)CC(c2cc(F)cc(F)c2)=CO1 (stereo partly drawn) [I7, methyl (3S)-3-[[4-(3,5-difluorophenyl)-2-(trifluoromethyl)-3H-furan-2-carbonyl]amino]butanoate]
herbicidal activity against ECHCG (ECHCG [1]): good (A good herbicidal activity is given at values of 60 to 90) | herbicidal activity against ECHCG (ECHCG [2]): very good (a very good herbicidal activity is given at values of 90 to 100) | herbicidal activity against SEFTA (SETFA): very good (a very good herbicidal activity is given at values of 90 to 100) | herbicidal activity against APESV (APESV): very good (a very good herbicidal activity is given at values of 90 to 100) | herbicidal activity against ALOMY (ALOMY): good (A good herbicidal activity is given at values of 60 to 90) | herbicidal activity against AVEFA (AVEFA): very good (a very good herbicidal activity is given at values of 90 to 100)
